# Results deposited as PubChem BioAssay AID1259254 (NCATS, 2017)
# Aim: 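Genome-wide screen for genes that prevent DNA re-replication in cancer cells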 (primary screen)
# Cells: human HCT116 colorectal cancer cells
# Knock-down reagent: single siRNA against human genes
# Time to read-out: 3 days
# Read-out: 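Nuclei stained with Hoechst and imaged; cell-cycle phase assigned by DNA content; G2 share scaled per plate, non-targeting siRNA 0%, GMNN siRNA 100%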
# Reading the numbers: G2 robust z-score and G2 cells, % of GMNN control: higher = more G2 cells, more excess DNA replication; raw share of cells in G2: higher = larger share of cells with G2 DNA content
# Active means: 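An siRNA counts as active if its G2 robust z-score lies at least 5 MADs above the screen median; here such calls match roughly 38% of GMNN control or more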
# The deposit covers about 59,000 reagents; shown is a part drawn at random. In the full data, about 1,550 (2.6%) were called active. 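G2 share is only a proxy for re-replication; each gene was hit by three separate siRNAs, and active genes were retested.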 Raw values vary from plate to plate and are shown uncorrected. Unmarked entries are inactive. Reagents against one gene are numbered here. Not given: the amount of reagent.
gene symbol,siRNA no.,G2 robust z-score,"G2 cells, % of GMNN control",raw share of cells in G2 (%)
LAMB4,1,1.31,12.2,9.76
LAMB4,2,0.501,6.49,6.82
LAMB4,3,-0.0089,2.9,4.26
TXNDC2,1,-0.508,-0.608,3.97
TXNDC2,2,2.8,22.7,13.2
TXNDC2,3,6.63 (active),49.6,26.1
GNPAT,1,1.08,10.6,8.98
GNPAT,2,-0.353,0.483,4.76
GNPAT,3,3.79,29.6,15.3
ZNF101,1,0.0763,3.5,4.3
ZNF101,2,3.34,26.5,12.4
ZNF101,3,2.33,19.3,10.3
PTPRN2,1,-0.709,-2.02,4.14
PTPRN2,2,-0.608,-1.31,3.91
PTPRN2,3,0.0809,3.54,4.56
NOP16,1,-0.0215,2.82,4.12
NOP16,2,0.693,7.84,6.41
NOP16,3,0.461,6.21,6.89
ZNF518A,1,-0.523,-0.709,3.29
ZNF518A,2,-0.079,2.41,7.06
ZNF518A,3,-0.416,0.0425,3.36
BLVRB,1,0.401,5.79,6.15
BLVRB,2,-0.115,2.16,5.45
BLVRB,3,0.844,8.9,8.24
ERCC6L2,1,0.373,5.59,6.55
ERCC6L2,2,2.79,22.6,15.3
ERCC6L2,3,1.39,12.8,7.08
ERCC6L2,4,-0.717,-2.08,3.06
ERCC6L2,5,-0.263,1.12,3.89
ERCC6L2,6,-0.0117,2.88,5.87

An excerpt from above, showing only “raw share of cells in G2 (%)”:
TXNDC2 #1: 3.97
TXNDC2 #2: 13.2
TXNDC2 #3: 26.1 (active)
GNPAT #1: 8.98

The results go on.
gene symbol,siRNA no.,G2 robust z-score,"G2 cells, % of GMNN control",raw share of cells in G2 (%)
PPP3CA,1,-0.515,-0.658,4.58
PPP3CA,2,-0.311,0.778,4.54
PPP3CA,3,-0.524,-0.721,3.28
C2orf68,1,-0.0456,2.65,4.68
C2orf68,2,-0.871,-3.16,2.03
C2orf68,3,-0.534,-0.788,4.3
ZNF578,1,-0.325,0.678,3.32
ZNF578,2,-0.857,-3.07,2.1
ZNF578,3,-0.392,0.211,3.6
LYPLAL1-DT,1,0.329,5.29,4.69
LYPLAL1-DT,2,0.671,7.69,6.56
LYPLAL1-DT,3,-0.496,-0.523,3.08
TLNRD1,1,-0.467,-0.318,4.22
TLNRD1,2,-0.721,-2.11,3.45
TLNRD1,3,1.87,16.1,8.13
DEF6,1,-0.049,2.62,4.86
DEF6,2,0.519,6.62,7.05
DEF6,3,-0.582,-1.13,2.9
